What all share (experiment): DAPPL (digital affinity profiling via proximity ligation, sequencing)
What all share (details): 10 mM Tris-HCl pH 7.5, 50 mM NaCl, 1 mM DTT, 4% glycerol, room temperature, 30 min; GST-TFs on glutathione beads, 16-mer random dsDNA library, 0.1% …; high values mean tight binding; double strand, one strand shown; scale: fold enrichment (6-mer frequency, TF over GST control)

The target of one experiment is T1, ELK1 (UniProt P19419).
T1 sequence: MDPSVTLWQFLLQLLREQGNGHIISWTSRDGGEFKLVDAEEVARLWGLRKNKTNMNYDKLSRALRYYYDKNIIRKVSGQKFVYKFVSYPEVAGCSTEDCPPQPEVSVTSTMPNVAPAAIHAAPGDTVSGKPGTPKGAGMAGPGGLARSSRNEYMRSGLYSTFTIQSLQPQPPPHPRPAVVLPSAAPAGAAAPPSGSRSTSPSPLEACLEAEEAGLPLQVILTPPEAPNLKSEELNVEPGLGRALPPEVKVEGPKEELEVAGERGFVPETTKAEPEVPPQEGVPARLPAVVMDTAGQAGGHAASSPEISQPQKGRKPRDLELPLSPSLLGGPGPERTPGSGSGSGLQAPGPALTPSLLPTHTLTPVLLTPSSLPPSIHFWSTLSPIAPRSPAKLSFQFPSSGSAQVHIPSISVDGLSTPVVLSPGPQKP

The next experiment has as its target T2, SPIC (UniProt Q8N5J4).
T2 sequence: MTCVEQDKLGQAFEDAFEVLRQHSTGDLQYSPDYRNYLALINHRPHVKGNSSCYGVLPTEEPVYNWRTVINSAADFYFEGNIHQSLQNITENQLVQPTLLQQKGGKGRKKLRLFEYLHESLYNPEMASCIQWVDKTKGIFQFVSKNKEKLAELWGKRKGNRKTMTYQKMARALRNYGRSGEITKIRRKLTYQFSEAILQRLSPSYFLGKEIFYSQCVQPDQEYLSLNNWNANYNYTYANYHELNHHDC

The target of the next experiment is T3, ELK3 (UniProt P41970).
T3 sequence: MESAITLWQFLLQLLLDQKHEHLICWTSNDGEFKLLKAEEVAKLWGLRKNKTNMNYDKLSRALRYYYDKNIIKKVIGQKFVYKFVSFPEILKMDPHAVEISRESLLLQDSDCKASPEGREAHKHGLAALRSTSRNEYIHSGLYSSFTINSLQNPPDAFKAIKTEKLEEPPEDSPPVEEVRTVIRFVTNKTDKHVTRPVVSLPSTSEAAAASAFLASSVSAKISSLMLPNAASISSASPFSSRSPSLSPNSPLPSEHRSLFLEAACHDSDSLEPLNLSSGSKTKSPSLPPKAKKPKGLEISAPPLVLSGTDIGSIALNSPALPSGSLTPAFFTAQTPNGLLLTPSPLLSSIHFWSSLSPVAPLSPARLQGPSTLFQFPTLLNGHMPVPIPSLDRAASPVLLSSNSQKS

For a further experiment, the target named is T4, ETV3 (UniProt P41162-2).
T4 sequence: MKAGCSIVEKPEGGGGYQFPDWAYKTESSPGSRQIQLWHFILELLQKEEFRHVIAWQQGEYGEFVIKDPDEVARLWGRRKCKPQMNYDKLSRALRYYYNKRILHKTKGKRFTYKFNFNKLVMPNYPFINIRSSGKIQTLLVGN

A further experiment concerns the target T5, ETS2 (UniProt P15036).
T5 sequence: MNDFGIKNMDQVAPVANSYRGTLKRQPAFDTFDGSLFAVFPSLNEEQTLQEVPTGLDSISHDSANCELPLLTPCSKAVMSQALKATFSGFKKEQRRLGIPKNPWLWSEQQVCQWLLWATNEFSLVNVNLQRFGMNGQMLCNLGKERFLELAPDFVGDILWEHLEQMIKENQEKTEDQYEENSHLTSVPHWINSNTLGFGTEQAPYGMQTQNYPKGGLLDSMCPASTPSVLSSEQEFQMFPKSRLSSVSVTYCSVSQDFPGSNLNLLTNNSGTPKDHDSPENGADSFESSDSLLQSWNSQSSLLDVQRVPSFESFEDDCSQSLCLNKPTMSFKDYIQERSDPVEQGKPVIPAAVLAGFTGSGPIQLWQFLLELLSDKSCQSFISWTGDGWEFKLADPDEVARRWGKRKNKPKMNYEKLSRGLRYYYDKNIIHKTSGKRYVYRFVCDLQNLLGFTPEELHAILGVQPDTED

Only a part is listed here, and it is no random draw. For some of these results: At the low end of the ranking the order means little.

For TCACGC, the binding signal was 1.18 in the experiment with ELK1 and 1.25 in the experiment with SPIC.
For the sequence GAACAT, the binding signal worked out at 1.02 with ELK1, 1.16 with ELK3, 0.999 with SPIC and 1.08 in the experiment with ETV3.
Regarding TATCAT, the binding signal with ELK1 came to 1.18; with SPIC, 1.25.
In the case of GTTTTC, the binding signal was 1.2 with ELK1, 1.1 with SPIC and 1.16 with ETS2.
As to TACTCG, the figures for the binding signal in the experiment with ELK1, with SPIC and with ETV3 were 1.29, 1.25 and 1.28, respectively.
As for GACCTT, the binding signal stood at 1.68 with ELK1 and 1.74 with SPIC.
Turning to ATTTGA, the binding signal in the experiment with ELK1 was 1.1; in the experiment with SPIC, 1.11; in the experiment with ETS2 it was 1.2.
Regarding AACGTT, the binding signal was found to be 1.15 in the experiment with ELK1 and 1.23 in the experiment with SPIC.
For ATCTCC, the binding signal with ELK1 came to 1.5; in the experiment with SPIC, 1.49; in the experiment with ETS2 it was 1.5.
As for TATCGA, the binding signal in the experiment with ELK1 was found to be 1.28; with ELK3, 1.34; in the experiment with SPIC it was 1.28; with ETV3 it was 1.25.
Take AATAAT: the results for the binding signal with SPIC, with ETS2 and with ETV3 were 1.31, 1.42 and 1.27, respectively.
For TGGTTT, the binding signal came out at 1.67 with SPIC and 1.54 with ETS2.
Regarding TTTCTT, the binding signal with SPIC turned out to be 1.24; with ETS2 it was 1.32; with ETV3, 1.34.
In the case of TTCCGT, the values for the binding signal with SPIC and with ETS2 were 2.02 and 1.94, respectively.
Consider GAATTT, for which the binding signal with SPIC was found to be 1.39; with ETS2, 1.28.
Regarding AACGTA, the binding signal was found to be 1.02 with SPIC and 0.979 with ETS2.
The like results for ATTAAT were, in that order, 1.18 and 1.27.
As for AATGTC, the binding signal with SPIC came to 1.41; with ETS2, 1.27.
For AGGAAA the same measures were 1.42 and 1.48.
For the sequence GCTTTC, the values for the binding signal with ELK1, with ELK3 and in the experiment with SPIC were 1.22, 1.38 and 1.06, respectively.
Turning to ACTCGC, the values for the binding signal with ELK1, in the experiment with ELK3 and in the experiment with SPIC were 1.14, 0.997 and 1.2, respectively.
On to GTTTCC, for which the binding signal with SPIC stood at 2.6; with ETS2, 2.82.
Take TGGTTA: the binding signal in the experiment with SPIC was 1.25; with ETS2, 1.07; in the experiment with ETV3 it was 1.05.
With TAATTG, the binding signal in the experiment with SPIC was 1.31; with ETS2, 1.42.
As to GCTCAG, the binding signal with SPIC amounted to 1.23; with ETS2, 1.06.
For TTAAGT the same measures were 1.25 and 1.16.
With CTAAGC, the binding signal in the experiment with SPIC stood at 1.08; with ETS2, 1.15; with ETV3 it was 1.07.
With CCTATG, the binding signal in the experiment with ELK3 is 1.18; with SPIC it was 1.1; with ETS2, 1.19; in the experiment with ETV3 it was 1.29.
For the sequence ATTGAA, the binding signal in the experiment with SPIC amounted to 0.976; with ETS2 it was 1.09.
The like results for AACGAA were, in that order, 1.2 and 1.18.
On to CCCGCA, for which the binding signal was found to be 1.27 in the experiment with SPIC and 1.18 in the experiment with ETS2.
As for CGATGA, the binding signal is 0.948 with SPIC, 0.954 in the experiment with ETS2 and 0.961 with ETV3.
Regarding TTAACT, the binding signal came out at 1.14 with ELK1, 1.19 in the experiment with ELK3 and 1.36 with SPIC.
On to TAGTTT, for which the binding signal in the experiment with ELK3 came out at 1.23; with SPIC, 1.21; with ETS2, 1.19; with ETV3 it was 1.32.
With TTAGTT, the binding signal in the experiment with SPIC is 1.28; with ETS2, 1.23.
As for TTGCGC, the binding signal in the experiment with SPIC came to 0.929; with ETS2 it was 1.16.
With AATAAC, the binding signal with SPIC was found to be 1.42; with ETS2, 1.27.
Take CTGGAC: the binding signal with ELK1 stood at 1.07; with ELK3, 0.995; with SPIC, 1.1.
As to TTGATT, the binding signal with SPIC was 1.35; with ETS2 it was 1.22.
Regarding GCAAAA, the binding signal with ELK3 was 1.15; with SPIC, 1.06; with ETS2, 1.18; in the experiment with ETV3, 1.07.
As to TTATGA, the binding signal with ELK1 came out at 1.15; in the experiment with ELK3, 1.22; with SPIC, 1.26.
For TTGGTG, the binding signal with SPIC and with ETS2 was 1.32 each time.
Consider GAACCA, for which the binding signal was found to be 0.968 in the experiment with ELK3, 0.996 with SPIC, 0.971 in the experiment with ETS2 and 0.971 in the experiment with ETV3.
